Results taken from the supplement of paper PMC6411743.
± gives the standard deviation of the averaged measurements. Only a part is listed here, and it is no random draw.

Sequences of proteins named here, by UniProt entry; tags and fusion partners are left off. A change or cut given only in a name is not applied to a line headed by its entry.
UniProt P51970, whole entry: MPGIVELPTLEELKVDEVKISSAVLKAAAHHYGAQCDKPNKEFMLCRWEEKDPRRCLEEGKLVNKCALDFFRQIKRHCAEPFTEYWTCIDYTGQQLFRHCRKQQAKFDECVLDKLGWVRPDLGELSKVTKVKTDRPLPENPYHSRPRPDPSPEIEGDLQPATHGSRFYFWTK
UniProt P50148, whole entry: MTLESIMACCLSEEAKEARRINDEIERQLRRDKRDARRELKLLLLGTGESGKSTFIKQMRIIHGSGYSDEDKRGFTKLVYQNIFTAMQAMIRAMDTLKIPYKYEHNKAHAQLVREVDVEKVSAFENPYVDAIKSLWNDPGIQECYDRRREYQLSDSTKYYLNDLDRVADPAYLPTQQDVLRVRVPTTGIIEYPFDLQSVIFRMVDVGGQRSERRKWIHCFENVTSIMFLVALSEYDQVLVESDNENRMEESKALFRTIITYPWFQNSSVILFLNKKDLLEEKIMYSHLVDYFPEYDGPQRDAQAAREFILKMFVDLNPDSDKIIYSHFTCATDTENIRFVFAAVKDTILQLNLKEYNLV
UniProt P51649: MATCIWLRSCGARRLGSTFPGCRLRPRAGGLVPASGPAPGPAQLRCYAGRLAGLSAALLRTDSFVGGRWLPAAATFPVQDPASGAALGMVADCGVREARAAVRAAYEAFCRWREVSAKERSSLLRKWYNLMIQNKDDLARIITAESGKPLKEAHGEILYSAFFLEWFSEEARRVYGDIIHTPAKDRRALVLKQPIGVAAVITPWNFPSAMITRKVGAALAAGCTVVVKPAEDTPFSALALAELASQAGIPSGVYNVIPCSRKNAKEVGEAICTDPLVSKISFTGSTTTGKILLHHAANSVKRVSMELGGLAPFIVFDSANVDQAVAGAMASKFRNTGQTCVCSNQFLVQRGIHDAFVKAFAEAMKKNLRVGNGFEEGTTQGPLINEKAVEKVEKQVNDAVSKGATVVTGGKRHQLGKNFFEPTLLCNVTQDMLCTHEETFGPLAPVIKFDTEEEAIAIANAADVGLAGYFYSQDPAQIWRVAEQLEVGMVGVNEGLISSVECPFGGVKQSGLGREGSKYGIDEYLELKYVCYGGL
UniProt P51659: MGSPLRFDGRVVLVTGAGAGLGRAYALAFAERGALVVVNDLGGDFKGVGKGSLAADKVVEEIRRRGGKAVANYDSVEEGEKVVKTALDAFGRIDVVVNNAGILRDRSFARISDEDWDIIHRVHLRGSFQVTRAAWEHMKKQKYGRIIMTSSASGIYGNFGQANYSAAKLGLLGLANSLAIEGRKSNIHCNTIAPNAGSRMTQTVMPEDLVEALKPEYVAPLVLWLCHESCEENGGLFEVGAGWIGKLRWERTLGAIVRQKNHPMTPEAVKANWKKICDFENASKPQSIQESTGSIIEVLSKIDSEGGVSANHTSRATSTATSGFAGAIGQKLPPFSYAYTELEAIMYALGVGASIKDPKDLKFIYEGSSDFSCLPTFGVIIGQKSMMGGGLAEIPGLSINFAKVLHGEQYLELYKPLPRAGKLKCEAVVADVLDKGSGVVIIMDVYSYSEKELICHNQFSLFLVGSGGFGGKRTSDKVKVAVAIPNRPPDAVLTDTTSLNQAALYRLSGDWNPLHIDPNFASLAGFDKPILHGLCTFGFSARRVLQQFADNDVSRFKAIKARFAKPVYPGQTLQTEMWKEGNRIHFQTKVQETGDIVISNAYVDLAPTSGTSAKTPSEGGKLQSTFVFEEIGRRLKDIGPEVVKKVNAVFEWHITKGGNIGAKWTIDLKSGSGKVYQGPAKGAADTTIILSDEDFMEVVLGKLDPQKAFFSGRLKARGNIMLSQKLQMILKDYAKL
UniProt P42858, whole entry: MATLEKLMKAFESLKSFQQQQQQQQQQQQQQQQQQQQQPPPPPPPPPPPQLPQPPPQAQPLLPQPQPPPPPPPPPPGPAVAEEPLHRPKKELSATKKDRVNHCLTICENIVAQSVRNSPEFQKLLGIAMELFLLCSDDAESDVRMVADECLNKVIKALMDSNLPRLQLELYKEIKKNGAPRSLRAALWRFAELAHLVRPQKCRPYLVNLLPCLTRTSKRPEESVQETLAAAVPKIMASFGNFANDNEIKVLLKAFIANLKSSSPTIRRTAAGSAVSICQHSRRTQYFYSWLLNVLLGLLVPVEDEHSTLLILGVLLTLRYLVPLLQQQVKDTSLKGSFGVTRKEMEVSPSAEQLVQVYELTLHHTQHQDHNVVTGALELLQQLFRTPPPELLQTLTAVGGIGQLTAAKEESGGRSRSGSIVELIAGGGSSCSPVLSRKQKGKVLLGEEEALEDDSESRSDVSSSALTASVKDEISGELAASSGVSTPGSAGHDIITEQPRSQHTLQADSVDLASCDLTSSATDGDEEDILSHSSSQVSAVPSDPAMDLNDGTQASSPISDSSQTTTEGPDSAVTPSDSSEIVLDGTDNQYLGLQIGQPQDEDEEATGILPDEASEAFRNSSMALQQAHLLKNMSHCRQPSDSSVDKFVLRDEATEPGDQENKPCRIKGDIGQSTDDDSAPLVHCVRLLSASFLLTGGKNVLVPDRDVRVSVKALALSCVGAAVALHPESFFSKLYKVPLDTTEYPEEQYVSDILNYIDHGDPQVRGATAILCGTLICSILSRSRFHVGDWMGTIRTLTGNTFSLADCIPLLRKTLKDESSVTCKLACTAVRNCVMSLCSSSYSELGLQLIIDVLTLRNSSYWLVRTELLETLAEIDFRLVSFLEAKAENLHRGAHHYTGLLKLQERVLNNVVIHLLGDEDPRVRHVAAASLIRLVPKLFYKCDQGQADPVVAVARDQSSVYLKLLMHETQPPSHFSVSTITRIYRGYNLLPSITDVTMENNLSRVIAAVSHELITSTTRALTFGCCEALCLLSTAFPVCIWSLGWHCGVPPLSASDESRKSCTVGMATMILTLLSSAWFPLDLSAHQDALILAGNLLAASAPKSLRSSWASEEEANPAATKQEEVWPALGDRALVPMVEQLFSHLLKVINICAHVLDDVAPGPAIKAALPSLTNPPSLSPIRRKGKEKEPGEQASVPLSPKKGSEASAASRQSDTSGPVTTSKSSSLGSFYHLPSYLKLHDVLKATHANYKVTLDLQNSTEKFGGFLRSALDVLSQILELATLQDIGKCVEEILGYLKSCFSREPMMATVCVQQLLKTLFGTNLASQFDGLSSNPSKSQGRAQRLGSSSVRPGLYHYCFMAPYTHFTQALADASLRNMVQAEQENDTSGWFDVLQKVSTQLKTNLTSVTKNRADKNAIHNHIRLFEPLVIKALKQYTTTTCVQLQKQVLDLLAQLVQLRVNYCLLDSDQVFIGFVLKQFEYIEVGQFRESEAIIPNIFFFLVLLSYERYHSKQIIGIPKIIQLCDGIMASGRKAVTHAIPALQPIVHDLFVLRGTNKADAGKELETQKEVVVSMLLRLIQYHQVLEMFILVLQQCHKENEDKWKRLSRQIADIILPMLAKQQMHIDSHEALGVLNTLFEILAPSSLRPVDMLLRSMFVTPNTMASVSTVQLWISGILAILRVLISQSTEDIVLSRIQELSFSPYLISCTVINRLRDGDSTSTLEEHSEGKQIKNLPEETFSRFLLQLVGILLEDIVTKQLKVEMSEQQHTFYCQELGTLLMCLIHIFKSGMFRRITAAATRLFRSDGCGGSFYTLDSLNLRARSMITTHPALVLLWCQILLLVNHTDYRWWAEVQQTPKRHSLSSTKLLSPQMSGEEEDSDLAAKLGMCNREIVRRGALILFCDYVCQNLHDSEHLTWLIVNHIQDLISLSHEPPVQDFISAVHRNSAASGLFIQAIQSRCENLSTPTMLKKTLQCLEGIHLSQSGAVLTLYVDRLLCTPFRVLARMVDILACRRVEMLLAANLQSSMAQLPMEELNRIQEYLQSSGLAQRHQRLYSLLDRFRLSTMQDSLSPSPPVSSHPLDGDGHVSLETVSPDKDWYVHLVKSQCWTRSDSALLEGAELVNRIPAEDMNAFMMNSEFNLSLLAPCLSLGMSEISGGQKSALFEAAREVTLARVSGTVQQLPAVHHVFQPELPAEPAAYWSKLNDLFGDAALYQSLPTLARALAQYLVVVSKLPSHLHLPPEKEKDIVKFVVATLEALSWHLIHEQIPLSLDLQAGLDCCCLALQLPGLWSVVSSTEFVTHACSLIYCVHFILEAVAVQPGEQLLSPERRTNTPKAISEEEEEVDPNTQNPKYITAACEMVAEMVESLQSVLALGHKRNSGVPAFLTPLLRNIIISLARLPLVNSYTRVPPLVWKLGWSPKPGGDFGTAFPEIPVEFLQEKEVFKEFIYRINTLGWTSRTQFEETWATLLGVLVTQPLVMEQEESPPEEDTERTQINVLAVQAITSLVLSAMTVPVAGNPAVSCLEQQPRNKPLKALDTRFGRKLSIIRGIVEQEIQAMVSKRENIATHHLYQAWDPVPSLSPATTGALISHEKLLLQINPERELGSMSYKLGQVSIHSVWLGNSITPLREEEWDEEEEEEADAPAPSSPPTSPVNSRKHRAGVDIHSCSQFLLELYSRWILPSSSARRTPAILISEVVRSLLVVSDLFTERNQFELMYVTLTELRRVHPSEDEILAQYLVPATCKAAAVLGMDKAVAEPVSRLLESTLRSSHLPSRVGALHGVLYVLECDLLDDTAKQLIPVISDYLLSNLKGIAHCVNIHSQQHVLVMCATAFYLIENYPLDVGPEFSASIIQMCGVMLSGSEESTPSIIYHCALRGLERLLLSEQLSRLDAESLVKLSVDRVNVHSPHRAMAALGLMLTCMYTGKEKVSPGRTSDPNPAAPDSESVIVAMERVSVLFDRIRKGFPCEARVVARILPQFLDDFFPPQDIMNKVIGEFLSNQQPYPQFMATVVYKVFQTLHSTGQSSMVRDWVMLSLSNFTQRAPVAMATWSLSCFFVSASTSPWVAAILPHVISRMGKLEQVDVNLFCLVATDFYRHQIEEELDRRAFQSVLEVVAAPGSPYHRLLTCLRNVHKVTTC
UniProt P42166: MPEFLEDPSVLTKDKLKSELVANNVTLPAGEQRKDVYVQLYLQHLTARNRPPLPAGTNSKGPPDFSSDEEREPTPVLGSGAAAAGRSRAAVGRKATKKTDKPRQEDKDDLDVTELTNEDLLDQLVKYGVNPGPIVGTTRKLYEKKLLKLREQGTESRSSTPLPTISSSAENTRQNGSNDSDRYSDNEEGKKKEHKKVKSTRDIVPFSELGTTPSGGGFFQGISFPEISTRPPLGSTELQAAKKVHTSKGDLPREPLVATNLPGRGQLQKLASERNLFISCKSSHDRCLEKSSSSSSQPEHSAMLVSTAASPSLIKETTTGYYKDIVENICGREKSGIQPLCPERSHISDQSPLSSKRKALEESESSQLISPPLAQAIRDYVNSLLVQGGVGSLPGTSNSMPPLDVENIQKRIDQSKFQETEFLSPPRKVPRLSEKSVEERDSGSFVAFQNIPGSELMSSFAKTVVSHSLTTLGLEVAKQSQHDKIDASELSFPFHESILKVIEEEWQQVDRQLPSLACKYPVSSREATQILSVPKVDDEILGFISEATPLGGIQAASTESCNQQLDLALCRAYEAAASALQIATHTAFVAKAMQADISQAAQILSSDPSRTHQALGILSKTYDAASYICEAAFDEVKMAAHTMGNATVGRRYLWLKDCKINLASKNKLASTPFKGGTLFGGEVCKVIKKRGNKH
UniProt P49321, whole entry: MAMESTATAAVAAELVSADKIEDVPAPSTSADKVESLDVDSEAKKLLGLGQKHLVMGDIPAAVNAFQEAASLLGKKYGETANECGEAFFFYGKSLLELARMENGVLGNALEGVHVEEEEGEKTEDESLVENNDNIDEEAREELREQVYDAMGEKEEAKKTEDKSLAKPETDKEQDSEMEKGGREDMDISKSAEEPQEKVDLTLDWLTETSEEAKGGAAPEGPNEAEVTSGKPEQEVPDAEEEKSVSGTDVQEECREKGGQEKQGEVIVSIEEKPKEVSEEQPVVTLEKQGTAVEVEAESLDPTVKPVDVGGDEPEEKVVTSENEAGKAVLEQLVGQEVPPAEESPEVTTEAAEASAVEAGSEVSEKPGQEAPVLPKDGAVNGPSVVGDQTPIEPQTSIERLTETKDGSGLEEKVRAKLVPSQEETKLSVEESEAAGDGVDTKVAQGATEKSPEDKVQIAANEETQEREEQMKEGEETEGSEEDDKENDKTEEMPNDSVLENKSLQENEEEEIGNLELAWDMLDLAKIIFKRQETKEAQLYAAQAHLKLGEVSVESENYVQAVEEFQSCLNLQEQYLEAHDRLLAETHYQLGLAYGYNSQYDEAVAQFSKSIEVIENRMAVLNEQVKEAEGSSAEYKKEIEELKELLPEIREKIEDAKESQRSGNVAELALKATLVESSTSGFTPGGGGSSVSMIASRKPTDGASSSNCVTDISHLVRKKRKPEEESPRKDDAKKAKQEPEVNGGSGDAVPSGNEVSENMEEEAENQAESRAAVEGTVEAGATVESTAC

Compound: Nc1ncnc2c1ncn2[C@@H]1O[C@H](COP(=O)(O)OP(=O)(O)NP(=O)(O)O)[C@@H](O)[C@H]1O [adenylyl imidodiphosphate]
Experiment: NP40-soluble protein abundance relative to vehicle (solubility fold change) (ratio); higher = more soluble protein in presence of AMP-PNP
Method in brief: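 Values are fold changes against the detergent-processed vehicle, based on vsn-normalised intensities. Jurkat crude lysate was treated at eight concentrations from 0.1 to 10 mM (10 min at room temperature, then 3 min at 37 °C), solubilised with 0.8% NP40 and benzonase, ultracentrifuged and analysed by TMT-labelled LC-MS/MS over three independent experiments.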

Target	NP40-soluble protein abundance (concentration: 1mM)	NP40-soluble protein abundance (concentration: 2mM)	NP40-soluble protein abundance (concentration: 4mM)	NP40-soluble protein abundance (concentration: 6mM)	NP40-soluble protein abundance (concentration: 8mM)	NP40-soluble protein abundance (concentration: 10mM)
UniProt P55211 and related entries	0.981 ± 0.043	0.991 ± 0.029	0.997 ± 0.034	1.01 ± 0.032	1.01 ± 0.045	0.98 ± 0.021
UniProt P45974 and related entries	1.01 ± 0.014	1.01 ± 0.024	1 ± 0.036	0.967 ± 0.024	0.96 ± 0.018	0.963 ± 0.043
UniProt P41227 and related entries	1.02 ± 0.036	1.07 ± 0.06	1.09 ± 0.03	1.15 ± 0.081	1.12 ± 0.052	1.18 ± 0.039
ALDH9A1 (UniProt P49189)	1.01 ± 0.013	0.932 ± 0.054	0.989 ± 0.026	0.9829 ± 0.0095	0.994 ± 0.021	0.964 ± 0.037
ACADSB (UniProt P45954)	1.005 ± 0.0092	0.972 ± 0.065	1.004 ± 0.0072	0.997 ± 0.034	1.02 ± 0.033	1 ± 0.053
UniProt P54819 and related entries	1.01 ± 0.036	1.06 ± 0.025	0.996 ± 0.073	0.9613 ± 0.0091	0.937 ± 0.028	0.928 ± 0.068
NDUFA8 (UniProt P51970)	0.984 ± 0.063	1.009 ± 0.006	0.95 ± 0.04	0.943 ± 0.031	0.958 ± 0.02	0.92 ± 0.055
UniProt P53990 and related entries	0.979 ± 0.018	0.9732 ± 0.0063	0.948 ± 0.021	0.9908 ± 0.0032	0.971 ± 0.0057	0.96 ± 0.049
GNAQ (UniProt P50148)	1.03 ± 0.033	0.986 ± 0.064	0.981 ± 0.019	0.97 ± 0.05	0.964 ± 0.02	0.965 ± 0.041
UniProt P43034 and related entries	1 ± 0.06	0.977 ± 0.037	1 ± 0.033	1.05 ± 0.048	1.07 ± 0.034	1.04 ± 0.03
UniProt P51649 and related entries	0.964 ± 0.031	0.934 ± 0.025	0.953 ± 0.025	0.9345 ± 0.0083	0.939 ± 0.03	0.914 ± 0.016
HSD17B4 (UniProt P51659)	1.01 ± 0.034	0.967 ± 0.026	1.04 ± 0.041	1.09 ± 0.058	1.12 ± 0.033	1.1 ± 0.034
UniProt P55327-2|P55327-4	0.887 ± 0.017	0.91 ± 0.054	0.915 ± 0.048	0.93 ± 0.024	0.88 ± 0.069	0.845 ± 0.087
VASP (UniProt P50552)	1.02 ± 0.03	1.09 ± 0.078	1.03 ± 0.033	1.01 ± 0.015	0.999 ± 0.046	0.9961 ± 0.0094
UniProt P45984 and related entries	1.06 ± 0.032	1 ± 0.074	1.02 ± 0.056	0.988 ± 0.024	1.01 ± 0.072	0.982 ± 0.069
HTT (UniProt P42858)	1.007 ± 0.0014	0.978 ± 0.035	0.994 ± 0.015	0.949 ± 0.027	0.9545 ± 0.0084	0.948 ± 0.021
P42166 and related entries (UniProt P42167+P42166)	1.06 ± 0.015	1.12 ± 0.081	1.08 ± 0.044	1.08 ± 0.029	1.05 ± 0.029	1.1 ± 0.043
TUFM (UniProt P49411)	1.01 ± 0.044	0.933 ± 0.05	1 ± 0.015	0.9578 ± 0.0077	0.988 ± 0.015	0.905 ± 0.019
UniProt P49321 and related entries	0.984 ± 0.025	1.04 ± 0.07	0.955 ± 0.043	0.964 ± 0.03	0.915 ± 0.022	0.914 ± 0.051

Single entries from above.
Entry for ACADSB (UniProt P45954) under NP40-soluble protein abundance (concentration: 8mM): 1.02 ± 0.033
Entry for UniProt P43034 and related entries under NP40-soluble protein abundance (concentration: 10mM): 1.04 ± 0.03
